In PMC7599698:
Results are given in words; binding and its absence hold for the method and conditions named. In cells and extracts the contact can be indirect. Some results given as binding are weak or reduced against the parent protein; the word gives no strength.

Assays:
[1] = target: epidermal growth factor receptor (EGFR) (human (endogenous in MCF-7 and MDA-MB-231)) (UniProt P00533); experiment: proximity ligation; in situ PLA on MCF-7 cells treated with EGF together with CD99CRIII3
[2] = target: epidermal growth factor receptor (EGFR) (human (endogenous in MCF-7 and MDA-MB-231)) (UniProt P00533); experiment: proximity ligation; in situ PLA (Duolink) on fixed, Triton-permeabilised MCF-7 or MDA-MB-231 cells; EGF 25 ng/mL, 15 min (or time course), 37 °C; cells in part treated with cytochalasin D, siRNAs/shRNA, CA- or DN-plasmids (FAK, c-Src, Rac1, RhoA), CD99CRIII3 or CD99-Fc

- binding [2]: binds
B1: Gab1 (protein, UniProt Q13480 1-694)
chain: MSGGEVVCSGWLRKSPPEKKLKRYAWKRRWFVLRSGRLTGDPDVLEYYKNDHAKKPIRIIDLNLCQQVDAGLTFNKKEFENSYIFDINTIDRIFYLVADSEEEMNKWVRCICDICGFNPTEEDPVKPPGSSLQAPADLPLAINTAPPSTQADSSSATLPPPYQLINVPPHLETLGIQEDPQDYLLLINCQSKKPEPTRTHADSAKSTSSETDCNDNVPSHKNPASSQSKHGMNGFFQQQMIYDSPPSRAPSASVDSSLYNLPRSYSHDVLPKVSPSSTEADGELYVFNTPSGTSSVETQMRHVSISYDIPPTPGNTYQIPRTFPEGTLGQTSKLDTIPDIPPPRPPKPHPAHDRSPVETCSIPRTASDTDSSYCIPTAGMSPSRSNTISTVDLNKLRKDASSQDCYDIPRAFPSDRSSSLEGFHNHFKVKNVLTVGSVSSEELDENYVPMNPNSPPRQHSSSFTEPIQEANYVPMTPGTFDFSSFGMQVPPPAHMGFRSSPKTPPRRPVPVADCEPPPVDRNLKPDRKVKPAPLEIKPLPEWEELQAPVRSPITRSFARDSSRFPMSPRPDSVHSTTSSSDSHDSEENYVPMNPNLSSEDPNLFGSNSLDGGSSPMIKPKGDKQVEYLDLDLDSGKSTPPRKQKSSGSGSSVADERVDYVVVDQQKTLALKSTREAWTDGRQSTESETPAKSVK
- binding [1]: no binding (condition: cells co-treated with CD99CRIII3)
